The source of these data is patent EP0058890A1, “Antithrombotic compounds” (THE WELLCOME FOUNDATION LIMITED, priority 1981, dated 1982).

Data set [1] relates to platelets. In words: Ex vivo platelet aggregation after oral dosing, arachidonate and collagen (method of Born), rat. It is filed as in vivo. The settings on record: platelets taken 24 hours after dosing respond normally to aggregation stimuli. Here is the method:
(§1) b. Ex vivo studies: The aggregation of platelets taken from animals dosed by the oral route with Compound II is inhibited when tested with arachidonate and collagen by the method of Born ((1962) Nature 194, 927, 929). The dose required to inhibit aggregation rate by 50% (ED50) at 1 hour was 5 mg/kg and 10 mg/kg in the guinea pig and rat, respectively. By comparison, the ED50 for aspirin in the guinea pig was 30 mg/kg, while the ED50 for aspirin in the rat was 10 mg/kg. The ED50 for indomethacin was 10 mg/kg and 5 mg/kg in the guinea pig and rat, respectively. In the dog, 10 mg/kg p.o. was an ED50 for as long as 6 hr.

The subject of data set [2] is platelets. Put plainly: Ex vivo platelet aggregation after oral dosing, arachidonate and collagen (method of Born), guinea pig. It is filed as in vivo. The settings on record: platelets taken 24 hours after dosing respond normally to aggregation stimuli. Here is the method:
as §1

In the case of `CC(=O)Oc1ccccc1C(=O)O` [aspirin], the “reversibility of inhibition of aggregation” value in the data set with platelets [1] and in the data set with platelets [2] was “unlike aspirin” throughout.
On to `COc1ccc2c(c1)c(CC(=O)O)c(C)n2C(=O)c1ccc(Cl)cc1` [indomethacin], for which the “reversibility of inhibition of aggregation” value in the data set with platelets [1] and in the data set with platelets [2] was “reversible” in each case.
